Some entries share one result that the patent states for a list of compounds.
What follows are molecules tested against T1, c-kit D816V (Homo sapiens, UniProt P10721, D816V) (assay: Colorimetric cell proliferation and viability assay (CellTiter-Blue) on BaF3 Kit D816V cell line). Details: Ba/F3 cells expressing human Kit D816V, cytokine independent, 48 hours incubation.
T1 construct: expressed in transfected cells; host or cells: murine Ba/F3 proB lymphoid cells, cytokine-independent
Assay type: cell-based

By UniProt entry, the sequences of proteins in these tests, tags left out. Residues count along the entry.
UniProt P10721, 26-976 D816V: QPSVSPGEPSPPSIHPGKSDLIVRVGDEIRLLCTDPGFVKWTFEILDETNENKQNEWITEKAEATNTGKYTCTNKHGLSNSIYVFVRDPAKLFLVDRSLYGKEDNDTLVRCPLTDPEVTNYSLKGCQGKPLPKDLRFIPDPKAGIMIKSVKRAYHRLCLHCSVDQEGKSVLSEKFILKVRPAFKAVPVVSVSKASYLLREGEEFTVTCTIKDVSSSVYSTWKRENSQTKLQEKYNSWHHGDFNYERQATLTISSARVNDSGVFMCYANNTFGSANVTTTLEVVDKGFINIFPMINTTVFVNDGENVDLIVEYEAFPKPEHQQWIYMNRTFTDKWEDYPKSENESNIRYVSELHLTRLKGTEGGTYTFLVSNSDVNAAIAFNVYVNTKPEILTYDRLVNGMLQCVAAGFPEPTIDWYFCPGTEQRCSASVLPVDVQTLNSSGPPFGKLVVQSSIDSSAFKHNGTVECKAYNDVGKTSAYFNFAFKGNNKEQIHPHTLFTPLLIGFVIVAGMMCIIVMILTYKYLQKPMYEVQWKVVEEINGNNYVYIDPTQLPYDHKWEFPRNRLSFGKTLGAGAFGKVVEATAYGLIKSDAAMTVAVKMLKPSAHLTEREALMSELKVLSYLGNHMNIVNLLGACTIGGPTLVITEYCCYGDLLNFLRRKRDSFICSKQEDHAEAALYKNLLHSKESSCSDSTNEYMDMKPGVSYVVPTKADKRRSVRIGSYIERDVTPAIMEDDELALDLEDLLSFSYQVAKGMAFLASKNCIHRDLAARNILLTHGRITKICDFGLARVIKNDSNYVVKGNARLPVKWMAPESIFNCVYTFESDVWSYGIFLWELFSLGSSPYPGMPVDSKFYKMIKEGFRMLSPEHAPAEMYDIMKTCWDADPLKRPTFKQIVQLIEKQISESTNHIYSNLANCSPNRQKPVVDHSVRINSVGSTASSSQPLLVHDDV

For `COCc1ccc(C)c(Nc2ncc(-c3cc(OCCN4CCOCC4)cc(-c4c(C)cc[nH]c4=O)c3)o2)c1` [Example 143, 3-[3-[2-(5-(Methoxymethyl)-2-methyl-phenylamino)-oxazol-5-yl]-5-(2-morpholin-4-yl-ethoxy)-phenyl]-4-methyl-1H-pyridin-2-one], which IC50 is on record?
Its IC50 is at most 1000 nM.

For `Cc1cc(C)cc(Nc2ncc(-c3cc(OCCN4CCOCC4)cc(-c4c(C)cc[nH]c4=O)c3)o2)c1` [Example 144, 3-[3-[2-(3,5-Dimethyl-phenylamino)-oxazol-5-yl]-5-(2-morpholin-4-yl-ethoxy)-phenyl]-4-methyl-1H-pyridin-2-one], which IC50 is on record?
Its IC50 is at most 1000 nM.

Which IC50 does the source give for `Cc1cc(-c2cnc(Nc3cc(OCCN4CCCC4)ccc3C)o2)cc(-c2c(C)cc[nH]c2=O)c1` [Example 146, 4-Methyl-3-(3-methyl-5-{2-[2-methyl-5-(2-pyrrolidin-1-yl-ethoxy)-phenylamino]-oxazol-5-yl}-phenyl)-1H-pyridin-2-one] here?
The IC50 was at most 1000 nM.

For `CCOCc1ccc(C)c(Nc2ncc(-c3ccc(C#N)c(-n4ccccc4=O)c3)o2)c1` [Example 148, 4-[2-(5-(Ethoxymethyl)-2-methyl-phenylamino)-oxazol-5-yl]-2-(2-oxo-2H-pyridin-1-yl)-benzonitrile], which IC50 is on record?
Its IC50 is at most 1000 nM.

How did the IC50 turn out when `N#Cc1ccc(-c2cnc(Nc3cc(NC(=O)CN4CCCC4)cc(C(F)(F)F)c3)o2)cc1-n1ccccc1=O` [Example 153, N-(3-{5-[4-Cyano-3-(2-oxo-2H-pyridin-1-yl)-phenyl]-oxazol-2-ylamino}-5-trifluoromethyl-phenyl)-2-pyrrolidin-1-yl-acetamide] was run?
Its IC50 is at most 1000 nM.

For `Cc1cc(NC(=O)CN(C)C)cc(Nc2ncc(-c3ccc(C#N)c(-n4ccccc4=O)c3)o2)c1` [Example 154, N-(3-{5-[4-Cyano-3-(2-oxo-2H-pyridin-1-yl)-phenyl]-oxazol-2-ylamino}-5-methyl-phenyl)-2-dimethylamino-acetamide], which IC50 is on record?
Its IC50 is at most 1000 nM.

How did the IC50 turn out when `CCN(CC)CC(=O)Nc1cccc(Nc2ncc(-c3ccc(C#N)c(-n4ccccc4=O)c3)o2)c1` [Example 155, N-(3-{5-[4-Cyano-3-(2-oxo-2H-pyridin-1-yl)-phenyl]-oxazol-2-ylamino}-phenyl)-2-diethylamino-acetamide] was run?
The IC50 was at most 1000 nM.

How did the IC50 turn out when `CCOCc1ccc(C)c(Nc2ncc(-c3ccc(C#N)c(-n4cccc(C)c4=O)c3)o2)c1` [Example 156, 4-[2-(5-(Ethoxymethyl)-2-methyl-phenylamino)-oxazol-5-yl]-2-(3-methyl-2-oxo-2H-pyridin-1-yl)-benzonitrile] was run?
Its IC50 is at most 1000 nM.

Which IC50 does the source give for `Cc1ccc(OCCN2CCCCC2)cc1Nc1ncc(-c2ccc(C#N)c(-n3cccc(C)c3=O)c2)o1` [Example 160, 2-(3-Methyl-2-oxo-2H-pyridin-1-yl)-4-{2-[2-methyl-5-(2-piperidin-1-yl-ethoxy)-phenylamino]-oxazol-5-yl}-benzonitrile] here?
Its IC50 is at most 1000 nM.

For `Cc1ccn(-c2cc(-c3cnc(Nc4cc(NC(=O)CN5CCCC5)ccc4C)o3)ccc2C#N)c(=O)c1` [Example 161, N-(3-{5-[4-Cyano-3-(4-methyl-2-oxo-2H-pyridin-1-yl)-phenyl]-oxazol-2-ylamino}-4-methyl-phenyl)-2-pyrrolidin-1-yl-acetamide], which IC50 is on record?
The IC50 was at most 1000 nM.

For `Cc1ccc(OC2CCN(C)CC2)cc1Nc1ncc(-c2ccnc(-c3ccc[nH]c3=O)c2)o1` [Example 170, 4-{2-[2-Methyl-5-(1-methyl-piperidin-4-yloxy)-phenylamino]-oxazol-5-yl}-1′H-[2,3′]bipyridinyl-2′-one], which IC50 is on record?
Its IC50 is at most 1000 nM.

How did the IC50 turn out when `COCc1ccc(C)c(Nc2ncc(-c3cccc(N4CCCNC4=O)c3)o2)c1` [Example 179, 1-{3-[2-((5-Methoxymethyl)-2-methyl-phenylamino)-oxazol-5-yl]-phenyl}-tetrahydro-pyrimidin-2-one] was run?
Its IC50 is at most 1000 nM.

For `CCOCc1ccc(C)c(Nc2ncc(-c3ccnc(-c4c(C)cc(C)[nH]c4=O)c3)o2)c1` [Example 180, 4′,6′-Dimethyl-4-{2-[2-methyl-5-(ethoxymethyl)-phenylamino]-oxazol-5-yl}-1′H-[2,3′]bipyridinyl-2′-one], which IC50 is on record?
Its IC50 is at most 1000 nM.

Source: patent US9168245B2, “Selective protein kinase inhibitors” (AB SCIENCE, priority 2011, dated 2015)
